Experimental data: article PMC5513536

Sequences of proteins named here, by UniProt entry; tags and fusion partners are left off.
UniProt F5HID2: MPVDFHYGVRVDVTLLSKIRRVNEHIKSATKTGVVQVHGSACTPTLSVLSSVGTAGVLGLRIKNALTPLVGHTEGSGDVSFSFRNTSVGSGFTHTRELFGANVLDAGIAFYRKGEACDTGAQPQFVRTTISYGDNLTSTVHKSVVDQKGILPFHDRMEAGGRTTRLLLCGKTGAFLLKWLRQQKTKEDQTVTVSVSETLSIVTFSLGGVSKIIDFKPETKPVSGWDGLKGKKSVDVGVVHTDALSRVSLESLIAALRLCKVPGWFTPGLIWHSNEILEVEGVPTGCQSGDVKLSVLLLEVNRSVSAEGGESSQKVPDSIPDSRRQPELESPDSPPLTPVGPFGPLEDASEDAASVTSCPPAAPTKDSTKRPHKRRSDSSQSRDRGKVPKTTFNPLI

B1: Peroxiredoxin-1 (protein, UniProt Q06830 1-199)
chain: MSSGNAKIGHPAPNFKATAVMPDGQFKDISLSDYKGKYVVFFFYPLDFTFVCPTEIIAFSDRAEEFKKLNCQVIGASVDSHFCHLAWVNTPKKQGGLGPMNIPLVSDPKRTIAQDYGVLKADEGISFRGLFIIDDKGILRQITVNDLPVGRSVDETLRLVQAFQFTDKHGEVCPAGWKPGSDTIKPDVQKSKEYFSKQK
B2: Isoform 4 of Heat shock protein 105kDA (protein, UniProt Q92598-4 1-860)
chain: MATAAVLRGPAAHWVESFQKAREEGSGSGTWRGRWRRRSVISFGSKNRTIGVAAKNQQITHANNTVSNFKRFHGRAFNDPFIQKEKENLSYDLVPLKNGGVGIKVMYMGEEHLFSVEQITAMLLTKLKETAENSLKKPVTDCVISVPSFFTDAERRSVLDAAQIVGLNCLRLMNDMTAVALNYGIYKQDLPSLDEKPRIVVFVDMGHSAFQVSACAFNKGKLKVLGTAFDPFLGGKNFDEKLVEHFCAEFKTKYKLDAKSKIRALLRLYQECEKLKKLMSSNSTDLPLNIECFMNDKDVSGKMNRSQFEELCAELLQKIEVPLYSLLEQTHLKVEDVSAVEIVGGATRIPAVKERIAKFFGKDISTTLNADEAVARGCALQCAILSPAFKVREFSVTDAVPFPISLIWNHDSEDTEGVHEVFSRNHAAPFSKVLTFLRRGPFELEAFYSDPQGVPYPEAKIGRFVVQNVSAQKDGEKSRVKVKVRVNTHGIFTISTASMVEKVPTEENEMSSEADMECLNQRPPENPDTDKNVQQDNSEAGTQPQVQTDAQQTSQSPPSPELTSEENKIPDADKANEKKVDQPPEAKKPKIKVVNVELPIEANLVWQLGKDLLNMYIETEGKMIMQDKLEKERNDAKNAVEEYVYEFRDKLCGPYEKFICEQDHQNFLRLLTETEDWLYEEGEDQAKQAYVDKLEELMKIGTPVKVRFQEAEERPKMFEELGQRLQHYAKIAADFRNKDEKYNHIDESEMKKVEKSVNEVMEWMNNVMNAQAKKSLDQDPVVRAQEIKTKIKELNNTCEPVVTQPKPKIESPKLERTPNGPNIDKKEEDLEDKNNFGAEPPHQNGECYPNEKNSVNMDLD
B3: Matrin-3 (protein, UniProt P43243 1-847)
chain: MSKSFQQSSLSRDSQGHGRDLSAAGIGLLAAATQSLSMPASLGRMNQGTARLASLMNLGMSSSLNQQGAHSALSSASTSSHNLQSIFNIGSRGPLPLSSQHRGDADQASNILASFGLSARDLDELSRYPEDKITPENLPQILLQLKRRRTEEGPTLSYGRDGRSATREPPYRVPRDDWEEKRHFRRDSFDDRGPSLNPVLDYDHGSRSQESGYYDRMDYEDDRLRDGERCRDDSFFGETSHNYHKFDSEYERMGRGPGPLQERSLFEKKRGAPPSSNIEDFHGLLPKGYPHLCSICDLPVHSNKEWSQHINGASHSRRCQLLLEIYPEWNPDNDTGHTMGDPFMLQQSTNPAPGILGPPPPSFHLGGPAVGPRGNLGAGNGNLQGPRHMQKGRVETSRVVHIMDFQRGKNLRYQLLQLVEPFGVISNHLILNKINEAFIEMATTEDAQAAVDYYTTTPALVFGKPVRVHLSQKYKRIKKPEGKPDQKFDQKQELGRVIHLSNLPHSGYSDSAVLKLAEPYGKIKNYILMRMKSQAFIEMETREDAMAMVDHCLKKALWFQGRCVKVDLSEKYKKLVLRIPNRGIDLLKKDKSRKRSYSPDGKESPSDKKSKTDGSQKTESSTEGKEQEEKSGEDGEKDTKDDQTEQEPNMLLESEDELLVDEEEAAALLESGSSVGDETDLANLGDVASDGKKEPSDKAVKKDGSASAAAKKKLKKVDKIEELDQENEAALENGIKNEENTEPGAESSENADDPNKDTSENADGQSDENKDDYTIPDEYRIGPYQPNVPVGIDYVIPKTGFYCKLCSLFYTNEEVAKNTHCSSLPHYQKLKKFLNKLAEERRQKKET
B4: Leucine-rich flightless-interacting protein 2 (protein, UniProt Q9Y608 1-721)
chain: MGTPASGRKRTPVKDRFSAEDEALSNIAREAEARLAAKRAARAEARDIRMRELERQQKEYSLHSFDRKWGQIQKWLEDSERARYSHRSSHHRPYLGVEDALSIRSVGSHRYDMFKDRSSRLSSLNHSYSHSHGMKKRSSDSHKDLLSGLYFDQRNYSSLRHSKPTSAYYTRQSSSLYSDPLATYKSDRASPTANSGLLRSASLASLYNGGLYNPYGPRTPSECSYYSSRISSARSSPGFTNDDTASIVSSDRASRGRRESVVSAADYFSRSNRRGSVVSEVDDISIPDLSSLDEKSDKQYAENYTRPSSRNSASATTPLSGNSSRRGSGDTSSLIDPDTSLSELRDIYDLKDQIQDVEGRYMQGLKELKESLSEVEEKYKKAMVSNAQLDNEKNNLIYQVDTLKDVIEEQEEQMAEFYRENEEKSKELERQKHMCSVLQHKMEELKEGLRQRDELIEEKQRMQQKIDTMTKEVFDLQETLLWKDKKIGALEKQKEYIACLRNERDMLREELADLQETVKTGEKHGLVIIPDGTPNGDVSHEPVAGAITVVSQEAAQVLESAGEGPLDVRLRKLAGEKEELLSQIRKLKLQLEEERQKCSRNDGTVGDLAGLQNGSDLQFIEMQRDANRQISEYKFKLSKAEQDITTLEQSISRLEGQVLRYKTAAENAEKVEDELKAEKRKLQRELRTALDKIEEMEMTNSHLAKRLEKMKANRTALLAQQ
B5: RNA-binding protein 14 (protein, UniProt Q96PK6 1-669)
chain: MKIFVGNVDGADTTPEELAALFAPYGTVMSCAVMKQFAFVHMRENAGALRAIEALHGHELRPGRALVVEMSRPRPLNTWKIFVGNVSAACTSQELRSLFERRGRVIECDVVKDYAFVHMEKEADAKAAIAQLNGKEVKGKRINVELSTKGQKKGPGLAVQSGDKTKKPGAGDTAFPGTGGFSATFDYQQAFGNSTGGFDGQARQPTPPFFGRDRSPLRRSPPRASYVAPLTAQPATYRAQPSVSLGAAYRAQPSASLGVGYRTQPMTAQAASYRAQPSVSLGAPYRGQLASPSSQSAAASSLGPYGGAQPSASALSSYGGQAAAASSLNSYGAQGSSLASYGNQPSSYGAQAASSYGVRAAASSYNTQGAASSLGSYGAQAASYGAQSAASSLAYGAQAASYNAQPSASYNAQSAPYAAQQAASYSSQPAAYVAQPATAAAYASQPAAYAAQATTPMAGSYGAQPVVQTQLNSYGAQASMGLSGSYGAQSAAAATGSYGAAAAYGAQPSATLAAPYRTQSSASLAASYAAQQHPQAAASYRGQPGNAYDGAGQPSAAYLSMSQGAVANANSTPPPYERTRLSPPRASYDDPYKKAVAMSKRYGSDRRLAELSDYRRLSESQLSFRRSPTKSSLDYRRLPDAHSDYARYSGSYNDYLRAAQMHSGYQRRM
B6: Nucleolar protein 58 (protein, UniProt Q9Y2X3 1-529)
chain: MLVLFETSVGYAIFKVLNEKKLQEVDSLWKEFETPEKANKIVKLKHFEKFQDTAEALAAFTALMEGKINKQLKKVLKKIVKEAHEPLAVADAKLGGVIKEKLNLSCIHSPVVNELMRGIRSQMDGLIPGVEPREMAAMCLGLAHSLSRYRLKFSADKVDTMIVQAISLLDDLDKELNNYIMRCREWYGWHFPELGKIISDNLTYCKCLQKVGDRKNYASAKLSELLPEEVEAEVKAAAEISMGTEVSEEDICNILHLCTQVIEISEYRTQLYEYLQNRMMAIAPNVTVMVGELVGARLIAHAGSLLNLAKHAASTVQILGAEKALFRALKSRRDTPKYGLIYHASLVGQTSPKHKGKISRMLAAKTVLAIRYDAFGEDSSSAMGVENRAKLEARLRTLEDRGIRKISGTGKALAKTEKYEHKSEVKTYDPSGDSTLPTCSKKRKIEQVDKEDEITEKKAKKAKIKVKVEEEEEEKVAEEEETSVKKKKKRGKKKHIKEEPLSEEEPCTSTAIASPEKKKKKKKKRENED
B7: Isoform 1A of Catenin delta-1 (protein, UniProt O60716-5 1-933)
chain: MDDSEVESTASILASVKEQEAQFEKLTRALEEERRHVSAQLERVRVSPQDANPLMANGTLTRRHQNGRFVGDADLERQKFSDLKLNGPQDHSHLLYSTIPRMQEPGQIVETYTEEDPEGAMSVVSVETSDDGTTRRTETTVKKVVKTVTTRTVQPVAMGPDGLPVDASSVSNNYIQTLGRDFRKNGNGGPGPYVGQAGTATLPRNFHYPPDGYSRHYEDGYPGGSDNYGSLSRVTRIEERYRPSMEGYRAPSRQDVYGPQPQVRVGGSSVDLHRFHPEPYGLEDDQRSMGYDDLDYGMMSDYGTARRTGTPSDPRRRLRSYEDMIGEEVPSDQYYWAPLAQHERGSLASLDSLRKGGPPPPNWRQPELPEVIAMLGFRLDAVKSNAAAYLQHLCYRNDKVKTDVRKLKGIPVLVGLLDHPKKEVHLGACGALKNISFGRDQDNKIAIKNCDGVPALVRLLRKARDMDLTEVITGTLWNLSSHDSIKMEIVDHALHALTDEVIIPHSGWEREPNEDCKPRHIEWESVLTNTAGCLRNVSSERSEARRKLRECDGLVDALIFIVQAEIGQKDSDSKLVENCVCLLRNLSYQVHREIPQAERYQEAAPNVANNTGPHAASCFGAKKGKGKKPIEDPANDTVDFPKRTSPARGYELLFQPEVVRIYISLLKESKTPAILEASAGAIQNLCAGRWTYGRYIRSALRQEKALSAIADLLTNEHERVVKAASGALRNLAVDARNKELIGKHAIPNLVKNLPGGQQNSSWNFSEDTVISILNTINEVIAENLEAAKKLRETQGIEKLVLINKSGNRSEKEVRAAALVLQTIWGYKELRKPLEKEGWKKSDFQVNLNNASRSQSSHSYDDSTLPLIDRNQKSDKKPDREEIQMSNMGSNTKSLDNNYSTPNERGDHNRTLDRSGDLGDMEPLKGTTPLMQKI
B8: Uveal autoantigen with coiled-coil domains and ankyrin repeats (protein, UniProt Q9BZF9 1-1416)
chain: MKSLKSRLRRQDVPGPASSGAAAASAHAADWNKYDDRLMKAAERGDVEKVTSILAKKGVNPGKLDVEGRSVFHVVTSKGNLECLNAILIHGVDITTSDTAGRNALHLAAKYGHALCLQKLLQYNCPTEHADLQGRTALHDAAMADCPSSIQLLCDHGASVNAKDVDGRTPLVLATQMSRPTICQLLIDRGADVNSRDKQNRTALMLGCEYGCRDAVEVLIKNGADISLLDALGHDSSYYARIGDNLDILTLLKTASENTNKGRELWKKGPSLQQRNLTHMQDEVNVKSHQREHQNIQDLEIENEDLKERLRKIQQEQRILLDKVNGLQLQLNEEVMVADDLESEREKLKSLLAAKEKQHEESLRTIEALKNRFKYFESDHLGSGSHFSNRKEDMLLKQGQMYMADSQCTSPGIPAHMQSRSMLRPLELSLPSQTSYSENEILKKELEAMRTFCESAKQDRLKLQNELAHKVAECKALALECERVKEDSDEQIKQLEDALKDVQKRMYESEGKVKQMQTHFLALKEHLTSEAASGNHRLTEELKDQLKDLKVKYEGASAEVGKLRNQIKQNEMIVEEFKRDEGKLIEENKRLQKELSMCEMEREKKGRKVTEMEGQAKELSAKLALSIPAEKFENMKSSLSNEVNEKAKKLVEMEREHEKSLSEIRQLKRELENVKAKLAQHVKPEEHEQVKSRLEQKSGELGKKITELTLKNQTLQKEIEKVYLDNKLLKEQAHNLTIEMKNHYVPLKVSEDMKKSHDAIIDDLNRKLLDVTQKYTEKKLEMEKLLLENDSLSKDVSRLETVFVPPEKHEKEIIALKSNIVELKKQLSELKKKCGEDQEKIHALTSENTNLKKMMSNQYVPVKTHEEVKMTLNDTLAKTNRELLDVKKKFEDINQEFVKIKDKNEILKRNLENTQNQIKAEYISLAEHEAKMSSLSQSMRKVQDSNAEILANYRKGQEEIVTLHAEIKAQKKELDTIQECIKVKYAPIVSFEECERKFKATEKELKDQLSEQTQKYSVSEEEVKKNKQENDKLKKEIFTLQKDLRDKTVLIEKSHEMERALSRKTDELNKQLKDLSQKYTEVKNVKEKLVEENAKQTSEILAVQNLLQKQHVPLEQVEALKKSLNGTIENLKEELKSMQRCYEKEQQTVTKLHQLLENQKNSSVPLAEHLQIKEAFEKEVGIIKASLREKEEESQNKMEEVSKLQSEVQNTKQALKKLETREVVDLSKYKATKSDLETQISSLNEKLANLNRKYEEVCEEVLHAKKKEISAKDEKELLHFSIEQEIKDQKERCDKSLTTITELQRRIQESAKQIEAKDNKITELLNDVERLKQALNGLSQLTYTSGNPTKRQSQLIDTLQHQVKSLEQQLADADRQHQEVIAIYRTHLLSAAQGHMDEDVQEALLQIIQMRQGLVC

The binders below were run against Flag-epitope tagged ORF59 (BAC16-ORF59Flag) (KSHV (human herpesvirus 8)) (UniProt F5HID2) (assay: affinity purification with mass spectrometry).
In the case of B1, the binding is reported as “binds”. B2 was tested, and the binding was “binds”. In the case of B3, the binding is reported as “binds”. For B4, the binding was “binds”. In the case of B5, the binding is reported as “binds”. B6 was tested, and the binding was “binds”. For B7, the binding was “binds”. With B8 the binding was “binds”.

Results are given in words; binding and its absence hold for the method and conditions named. Binding seen in cells or lysates may run through a third protein. Here binding means that the protein was enriched with, or labelled near, the bait; the list need not be complete.
